Test results taken from PubChem BioAssay AID587 (National Center for Advancing Translational Sciences (NCATS), 2007).
Hit rate of the full screen: of about 59,000 compounds, about 35 (0.06%) were called active. The inconclusive results got no clear call from the source; some entries with a clear call stand among them for comparison. Rule as the data show it: active = max dye-equivalent concentration above about 10 nM; inconclusive = between about 1.1 nM and that limit; inactive = weaker than that.

experiment: qHTS Assay for Spectroscopic Profiling in Texas Red Spectral Region; settings: Compound fluorescence, Texas Red channel, 547/618 nm; stronger effect = higher value
How it was run: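 Compound fluorescence was read after 15 min at room temperature in 100 mM Tris, pH 8.0, using 547 nm excitation and 618 nm emission across a concentration series. It was expressed as Texas Red dye-equivalent concentration from an on-plate standard curve.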

SMILES	max dye-equivalent concentration
COc1ccc([C@@H]2CNC(=O)C2)cc1OC1CCCC1	inconclusive: 1.4 nM
CC(C)COC[C@H](CN(Cc1ccccc1)c1ccccc1)N1CCCC1	inactive
COc1ccc(OC)c(NC(=O)C(CC(C)C)NC(=O)C2CCCCC2)c1 (stereo not given)	inconclusive: 1.8 nM
CCC(=O)Nc1ccc2c(c1)C(=O)N(C1CCCCC1)C2=O	inconclusive: 2.3 nM
COc1cccc(Nc2ncc3nc(-c4ccc(Cl)cc4)c(=O)n(C[C@H]4CCCO4)c3n2)c1	inactive
CN1CCCN=C1/C=C\c1cccs1	inactive
CCCCC[C@@H](O)[C@@H]1C(=O)O[C@@H](C)[C@@H](O)\C=C/C=C\C=C/C=C\C=C(\C)[C@H](O)C[C@H](O)C[C@H](O)C[C@H](O)C[C@H](O)C[C@H](O)C[C@@H]1O	inconclusive: 1.4 nM
CC1(C)OC(=O)C(=CNc2ccccc2F)C(=O)O1	inconclusive: 1.2 nM
CCOC(=O)c1cc2sc(C)cc2n1CC(=O)Nc1cccc(C)c1C	inconclusive: 1.3 nM
COc1ccc2[nH]cc(CCNc3ccnc(-c4ccc(N(C)C)cc4)n3)c2c1	inactive
Cc1[nH]c(C)c(CN(C)C)c1CN(C)C	inactive
CCOc1ccc(OCc2ccc(C(=O)NCc3ccncc3)o2)cc1	inconclusive: 1.1 nM
COc1cc(NC(=O)C2CCCO2)c(OC)cc1NC(=O)c1ccccc1 (stereo not given)	inconclusive: 1.7 nM
CCOC(=O)CCCN	inactive
COc1cc(C)nc(OCCNC(=O)COc2ccc(Cl)cc2C)n1	inconclusive: 1.2 nM
CCC(=O)N1c2ccccc2[C@@H](N(C(C)=O)c2ccccc2)C[C@H]1C	inconclusive: 1.1 nM
c1ccc(Cc2nn3c(Cn4cnc5ccccc54)nnc3s2)cc1	inconclusive: 1.3 nM
Nc1nc(-c2ccccc2Br)cs1	inconclusive: 1.6 nM
C=CCn1c(SCc2cc(=O)n3ccsc3n2)nc2scc(C3CC3)c2c1=O	inconclusive: 2.3 nM
CC(=O)O[C@H]1CC[C@@]2(C)C(=CC[C@@H]3[C@H]4CC[C@@H]([C@H](C)C(=O)O)[C@]4(C)CC[C@H]32)C1	inactive
COc1ccc(-c2nnc(SC(C)C(=O)Nc3nccs3)n2-c2ccccc2)cc1OC (stereo not given)	inconclusive: 1.6 nM
CO[C@]1(C2=NCCN2)COc2ccccc2O1	inconclusive: 1.8 nM
CC(C)(C)NC(=O)NC(=O)COC(=O)C1CC(=O)N(Cc2ccccc2)C1 (stereo not given)	inconclusive: 1.9 nM
CCOC(=O)c1cccc(NC(=O)CSc2nnc(COc3ccccc3C)o2)c1	inconclusive: 1.1 nM
COc1cc(-c2noc(-c3ccco3)n2)cc(OC)c1OC	inconclusive: 1.6 nM
CCn1c(COc2cccc(C)c2)nnc1SCC(=O)N1CCCC1	inconclusive: 1.5 nM
COC(=O)c1cc(Cl)c(NC(=O)c2ccco2)cc1OC	inconclusive: 1.1 nM
Cc1cccc(CNc2ncnc3[nH]ncc23)c1	inconclusive: 1.2 nM

SMILES	max dye-equivalent concentration
Cn1c(=O)[nH]c(=O)c2c1nc(N1CCNCC1)n2Cc1cccc2ccccc12	inconclusive: 1.9 nM
COc1cc(C(=O)NCc2nnc(SCC(=O)N3CCCCC3)o2)cc(OC)c1OC	inconclusive: 1.1 nM
CCC(C)(C)n1nnnc1C(c1cc(OC)c(OC)c(OC)c1)N1CCN(c2ccccc2)CC1 (stereo not given)	inconclusive: 3.7 nM
c1ccc(CN(Cc2ccco2)C(c2ccncc2)c2nnnn2C2CCCC2)cc1 (stereo not given)	inconclusive: 1.4 nM
Nc1ccc(O)c(C(=O)O)c1	inconclusive: 1.2 nM
CC(=O)NCc1nc2ccccc2n1Cc1ccccc1F	inconclusive: 1.6 nM
COc1ccc(NC(=O)CCS(=O)(=O)c2ccc(OC)cc2)cc1	inconclusive: 1.4 nM
O=C(NC1(C(F)(F)F)NC(=O)N(Cc2cccnc2)C1=O)c1cccs1 (stereo not given)	inconclusive: 1.7 nM
CCN(CC)c1ccc2cc(C(=O)Nc3ccc(-n4cnnn4)c(OC)c3)c(=O)oc2c1	inactive
CC(c1ccccc1)n1cc(C(=O)NCC2COc3ccccc3O2)nn1 (stereo not given)	inconclusive: 1.7 nM
COC(=O)/C=c1/sc2n(c1=O)CCN=2	inactive
O=S(=O)(c1cccs1)N1CCN(c2ncccn2)CC1	inconclusive: 2.1 nM
COc1cccc(C2C(C(=O)Nc3cccnc3)=C(C)Nc3nnnn32)c1OC (stereo not given)	inconclusive: 1.3 nM
Cc1ccnc(N2CCN(C(=O)CSc3nc4ccccc4nc3N3CCCCC3)CC2)c1	inconclusive: 1.1 nM
CCN(CC)CCOC(=O)C1(c2ccc([N+](=O)[O-])cc2)CCCC1	inconclusive: 1.2 nM
CCOc1ccc2nc(NC3=NCN(Cc4ccco4)CN3)nc(C)c2c1	inconclusive: 1.3 nM
CCOC(=O)Cc1cc(=O)n2[nH]c(C)c(-c3ccccc3)c2n1	inconclusive: 1.2 nM
C[C@]12CC[C@H]3c4ccc(O)cc4CC[C@@H]3[C@H]1CC[C@@H]2OP(=O)(O)O	inconclusive: 1.3 nM
CS(=O)(=O)N(CCc1ccccc1)CC(=O)NCC1CCCO1 (stereo not given)	inconclusive: 2.1 nM
Cc1ccc(-c2nc3ccccc3c(=O)n2CCCn2ccnc2)cc1	inconclusive: 1.3 nM
Cc1ccc(NCc2nnc(SCC(=O)N3CCCc4ccccc43)o2)c(C)c1	inconclusive: 2.2 nM
O=C1CSC(c2cn(-c3ccccc3)nc2-c2cccs2)N1CC1CCCO1 (stereo not given)	inconclusive: 1.1 nM
O=C(COC(=O)C1CC2C=CC1C2)Nc1ccc2c(c1)OC(F)(F)O2 (stereo not given)	inconclusive: 1.1 nM
COc1ccc(CCNS(=O)(=O)c2ccccc2)cc1OC	inconclusive: 1.6 nM
NC(=NCc1ccc(Cl)c(Cl)c1)NC(=O)c1nc(Cl)c(N)nc1N	inconclusive: 2.2 nM
O=C(N1CCOCC1)N1CCOCC1	inconclusive: 1.2 nM
O=C(COc1ccc(Cl)cc1)NCc1nnc(SCC(=O)NCCc2ccccc2)o1	inconclusive: 1.2 nM

5 of these compounds, reformatted:

| SMILES | max dye-equivalent concentration |
| --- | --- |
| O=C(NC1(C(F)(F)F)NC(=O)N(Cc2cccnc2)C1=O)c1cccs1 (stereo not given) | inconclusive: 1.7 nM |
| CCN(CC)c1ccc2cc(C(=O)Nc3ccc(-n4cnnn4)c(OC)c3)c(=O)oc2c1 | inactive |
| CC(c1ccccc1)n1cc(C(=O)NCC2COc3ccccc3O2)nn1 (stereo not given) | inconclusive: 1.7 nM |
| COC(=O)/C=c1/sc2n(c1=O)CCN=2 | inactive |
| O=S(=O)(c1cccs1)N1CCN(c2ncccn2)CC1 | inconclusive: 2.1 nM |
